Data as given in PMC8897400.
Results are given in words; binding and its absence hold for the method and conditions named. For some of these results: In cells and extracts the contact can be indirect. Some entries that bind do so weakly or less than the wild type. Values belong to the substance of their own block, whether it stands above or below them.

Chains of the proteins cited; added tags and fusions are not shown. Lines headed by an entry give the natural chain unless they say otherwise; changes in a name come on top.
UniProt O95373: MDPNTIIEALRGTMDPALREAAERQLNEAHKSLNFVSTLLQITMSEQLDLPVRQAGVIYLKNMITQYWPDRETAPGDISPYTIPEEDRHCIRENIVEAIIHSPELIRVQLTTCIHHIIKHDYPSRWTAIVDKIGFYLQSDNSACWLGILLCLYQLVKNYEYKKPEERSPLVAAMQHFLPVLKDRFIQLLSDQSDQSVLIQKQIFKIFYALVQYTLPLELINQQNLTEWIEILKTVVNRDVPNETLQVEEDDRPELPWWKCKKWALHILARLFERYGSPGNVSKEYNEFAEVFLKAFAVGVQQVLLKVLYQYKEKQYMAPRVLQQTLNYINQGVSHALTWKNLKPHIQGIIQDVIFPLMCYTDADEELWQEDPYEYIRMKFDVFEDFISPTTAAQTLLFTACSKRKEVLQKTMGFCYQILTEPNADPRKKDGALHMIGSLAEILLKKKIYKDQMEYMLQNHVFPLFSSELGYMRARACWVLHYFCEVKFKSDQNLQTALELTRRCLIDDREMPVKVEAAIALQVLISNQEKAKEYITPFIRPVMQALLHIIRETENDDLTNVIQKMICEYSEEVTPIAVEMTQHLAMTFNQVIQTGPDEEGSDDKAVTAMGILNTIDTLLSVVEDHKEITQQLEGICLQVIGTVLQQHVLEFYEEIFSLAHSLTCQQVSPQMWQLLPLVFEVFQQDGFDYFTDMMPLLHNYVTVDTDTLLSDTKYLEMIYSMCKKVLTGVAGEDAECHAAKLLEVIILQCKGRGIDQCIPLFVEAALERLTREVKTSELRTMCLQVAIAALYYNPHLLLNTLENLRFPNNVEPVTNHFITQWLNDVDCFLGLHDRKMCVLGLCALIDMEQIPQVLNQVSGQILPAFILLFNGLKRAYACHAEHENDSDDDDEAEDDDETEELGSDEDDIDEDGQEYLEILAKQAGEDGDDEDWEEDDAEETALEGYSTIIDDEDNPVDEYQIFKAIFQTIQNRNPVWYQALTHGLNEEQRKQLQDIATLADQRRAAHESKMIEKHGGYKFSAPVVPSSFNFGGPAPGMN
UniProt P46937: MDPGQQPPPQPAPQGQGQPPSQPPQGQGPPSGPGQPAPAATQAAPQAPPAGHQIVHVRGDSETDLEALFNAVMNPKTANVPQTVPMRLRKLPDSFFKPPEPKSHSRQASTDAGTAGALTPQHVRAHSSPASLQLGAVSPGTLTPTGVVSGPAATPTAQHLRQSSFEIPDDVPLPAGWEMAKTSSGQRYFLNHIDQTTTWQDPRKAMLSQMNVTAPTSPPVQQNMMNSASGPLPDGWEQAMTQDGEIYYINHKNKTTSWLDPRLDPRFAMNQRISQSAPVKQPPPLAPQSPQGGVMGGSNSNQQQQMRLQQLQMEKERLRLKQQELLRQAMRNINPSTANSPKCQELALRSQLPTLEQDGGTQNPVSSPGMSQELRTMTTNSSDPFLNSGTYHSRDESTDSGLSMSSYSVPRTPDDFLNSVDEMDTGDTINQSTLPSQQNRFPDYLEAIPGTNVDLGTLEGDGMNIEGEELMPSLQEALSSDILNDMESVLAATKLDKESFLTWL
UniProt P84022: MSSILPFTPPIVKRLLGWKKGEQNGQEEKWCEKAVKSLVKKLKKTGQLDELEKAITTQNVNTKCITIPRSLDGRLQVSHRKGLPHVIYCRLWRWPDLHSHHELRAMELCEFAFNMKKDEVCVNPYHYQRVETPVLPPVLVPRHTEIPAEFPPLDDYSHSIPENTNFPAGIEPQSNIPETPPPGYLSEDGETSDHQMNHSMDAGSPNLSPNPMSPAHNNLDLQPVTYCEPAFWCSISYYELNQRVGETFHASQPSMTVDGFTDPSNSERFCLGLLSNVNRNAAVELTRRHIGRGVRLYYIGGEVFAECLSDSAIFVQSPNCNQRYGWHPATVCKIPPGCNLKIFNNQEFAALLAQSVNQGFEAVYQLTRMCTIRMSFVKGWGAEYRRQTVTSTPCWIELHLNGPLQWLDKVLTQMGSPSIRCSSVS

Key:
[1] = biological target: endogenous Importin-7 (human (endogenous in RPE-1)) (UniProt O95373); assay: co-IP; YAP wild type or mutants (EYFP-YAP forms, YAP S5A) expressed in cells, co-immunoprecipitation with endogenous Imp7 (Supplementary Fig. 7a-d); cell line and precipitating antibody not told in the text shown
GST-Imp7 = GST-Imp7 (UniProt O95373); assay: pull-down; GST-Imp7 or GST on Sepharose beads mixed with GFP8Q, GFP8Q-YAP or its mutants in IP buffer, 4 °C, 1.5 h; washed; SDS-PAGE, Coomassie; both purified
[2] = biological target: endogenous Importin-7 (human (endogenous in RPE-1)) (UniProt O95373); assay: proximity ligation; in situ PLA of endogenous Smad3 and Imp7 in RPE-1 cells; low or high confluence, with or without TGFβ, YAP, Imp7 or Smad3 siRNAs, EYFP-YAP overexpression, XMU-MP-1
[3] = biological target: endogenous Importin-7 (human (endogenous in RPE-1)) (UniProt O95373); assay: condition: only cells at high confluence, without XMU-MP-1; co-IP; anti-Imp7 immunoprecipitation from lysates of cells at high confluence, vehicle
[4] = biological target: endogenous Importin-7 (human (endogenous in RPE-1)) (UniProt O95373); assay: condition: only cells treated with Cyt D (1 µM, 1 h); proximity ligation; in situ PLA of endogenous YAP and Imp7 in RPE-1 cells treated with Cyt D (1 µM, 1 h)
[5] = biological target: endogenous Importin-7 (human (endogenous in RPE-1)) (UniProt O95373); assay: condition: only cells treated with Y27632 (25 µM, 1 h); proximity ligation; in situ PLA of endogenous YAP and Imp7 in RPE-1 cells treated with Y27632 (25 µM, 1 h)
[6] = biological target: endogenous Importin-7 (human (endogenous in RPE-1)) (UniProt O95373); assay: condition: only cells treated with blebbistatin (10 µM, 1 h); proximity ligation; in situ PLA of endogenous YAP and Imp7 in RPE-1 cells treated with blebbistatin (10 µM, 1 h)
[7] = biological target: endogenous Importin-7 (human (endogenous in RPE-1)) (UniProt O95373); assay: proximity ligation; in situ PLA (Duolink) of endogenous YAP (antibody 63.7) and Imp7 (rabbit antibody) in fixed, permeabilised RPE-1 cells; also after knock-down of Imp7, YAP or Smad3
[8] = biological target: endogenous Importin-7 (human (endogenous in RPE-1)) (UniProt O95373); assay: condition: only cells treated with Cyt D (1 µM, 1 h), without XMU-MP-1; co-IP; anti-Imp7 immunoprecipitation from lysates of cells at low confluence treated with Cyt D (1 µM, 1 h), without XMU-MP-1
[9] = biological target: endogenous Importin-7 (human (endogenous in RPE-1)) (UniProt O95373); assay: co-IP; anti-Imp7 immunoprecipitation from RPE-1 lysates, blot for YAP; low confluence; also high confluence with XMU-MP-1 (6 µM, 16 h) and low confluence with Cyt D plus XMU-MP-1; IP buffer 50 mM Tris-HCl pH 8.0, 100 mM NaCl, 1% Triton X-100

binding [1]: binds
Substance: EYFP-YAP (from UniProt P46937-1 1-504)

binding (GST-Imp7): binds
Substance: GFP8Q-YAP (from UniProt P46937 1-504)

binding [2]: binds
Substance: endogenous Smad3 (from UniProt P84022 1-425)

binding [3]: no binding
binding [4]: no binding
binding [5]: no binding
binding [6]: no binding
binding [7]: binds
binding [8]: no binding
binding [9]: binds
Substance: endogenous YAP (from UniProt P46937 1-504)
